For assay [1], the target named is human MT1 receptor fused at its C-terminal part with the small enzyme fragment ProLink tag (human) (UniProt P48039). As to the kind of experiment: split reporter; PathHunter β-galactosidase complementation in HEK 293 cells; β-arrestin2 fused to the β-gal acceptor, receptor fused to ProLink; cells stimulated with a saturating or increasing concentration of melatonin or plant extracts for 2-3 h at 37 °C 5% CO2; luminescence read after 60 min at room ….

Amino acid sequences for entries named in this document (tags omitted). A change or cut given only in a name is not applied to a line headed by its entry.
UniProt P48039: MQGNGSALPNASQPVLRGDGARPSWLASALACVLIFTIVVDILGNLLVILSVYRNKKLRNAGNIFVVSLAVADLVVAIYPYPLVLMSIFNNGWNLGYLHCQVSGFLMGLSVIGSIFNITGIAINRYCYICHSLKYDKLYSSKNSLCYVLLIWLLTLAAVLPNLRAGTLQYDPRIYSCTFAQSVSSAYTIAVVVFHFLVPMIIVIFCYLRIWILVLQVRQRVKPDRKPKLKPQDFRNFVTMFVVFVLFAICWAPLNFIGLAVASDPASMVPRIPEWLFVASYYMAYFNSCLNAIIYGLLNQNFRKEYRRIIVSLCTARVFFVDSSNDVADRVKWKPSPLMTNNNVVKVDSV
UniProt P32121: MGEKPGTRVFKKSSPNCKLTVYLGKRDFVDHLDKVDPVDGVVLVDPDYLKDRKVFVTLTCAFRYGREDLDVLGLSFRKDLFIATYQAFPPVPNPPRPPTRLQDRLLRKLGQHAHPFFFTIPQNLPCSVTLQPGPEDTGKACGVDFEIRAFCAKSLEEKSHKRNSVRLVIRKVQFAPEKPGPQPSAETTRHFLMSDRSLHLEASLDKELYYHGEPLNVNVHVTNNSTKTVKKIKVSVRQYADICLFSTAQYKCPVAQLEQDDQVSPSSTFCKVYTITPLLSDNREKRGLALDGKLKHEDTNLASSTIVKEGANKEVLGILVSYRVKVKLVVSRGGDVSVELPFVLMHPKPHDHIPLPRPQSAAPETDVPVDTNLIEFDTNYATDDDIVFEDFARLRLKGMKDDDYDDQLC

In assay [2] the target is T1, human MT2 receptor fused at its C-terminal part with the small enzyme fragment ProLink tag (human) (UniProt P49286).
T1 sequence: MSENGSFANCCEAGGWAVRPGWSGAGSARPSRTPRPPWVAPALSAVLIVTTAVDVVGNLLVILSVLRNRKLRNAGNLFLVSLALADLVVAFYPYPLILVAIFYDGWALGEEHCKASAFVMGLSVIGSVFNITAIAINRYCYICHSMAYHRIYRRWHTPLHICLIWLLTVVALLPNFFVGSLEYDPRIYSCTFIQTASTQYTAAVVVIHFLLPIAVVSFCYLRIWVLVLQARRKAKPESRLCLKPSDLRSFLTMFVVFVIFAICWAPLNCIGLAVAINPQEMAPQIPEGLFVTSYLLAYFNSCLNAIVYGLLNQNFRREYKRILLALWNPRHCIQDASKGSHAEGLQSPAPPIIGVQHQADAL
The assay is described as above.

Assay [3] addresses Rluc-MT1 receptor (human) (UniProt P48039). As to the kind of experiment: FRET or BRET; BRET in HEK293T cells between Rluc-MT1 and YFP-tagged β-arrestin-2; PBS with calcium and magnesium, room temperature, coelenterazine h 5 µM; stimulated with melatonin or extract; net BRET after subtracting cells that express Rluc-MT1 only. A general note: BRET reads energy transfer from a luciferase to a nearby fluorophore.

No constants are given. Whether binding was seen depends on the method and setting. Binding seen in cells or lysates may run through a third protein. Some entries that bind do so weakly or less than the wild type. For part of these data: Tags and fused reporters may be left off the sequences shown.

“fusion protein of β-arrestin2 and the larger N-terminal deletion mutant of β-gal (from UniProt P32121 1-409)”: the binding entry in assay [1] and in assay [2] was “binds” each time.
In the case of “YFP-tagged β-arrestin-2 (from UniProt P32121 1-409)”, the binding entry in assay [3] was “binds”.

Values taken from publication PMC10386454 (Pharmaceutics, 2023).
